The values that follow come from PMC11156899, “High-throughput screening unveils nitazoxanide as a potent PRRSV inhibitor by targeting NMRAL1” (Nature Communications, 2024).

Amino acid sequences for entries named in this document (tags omitted).
UniProt Q9HBL8: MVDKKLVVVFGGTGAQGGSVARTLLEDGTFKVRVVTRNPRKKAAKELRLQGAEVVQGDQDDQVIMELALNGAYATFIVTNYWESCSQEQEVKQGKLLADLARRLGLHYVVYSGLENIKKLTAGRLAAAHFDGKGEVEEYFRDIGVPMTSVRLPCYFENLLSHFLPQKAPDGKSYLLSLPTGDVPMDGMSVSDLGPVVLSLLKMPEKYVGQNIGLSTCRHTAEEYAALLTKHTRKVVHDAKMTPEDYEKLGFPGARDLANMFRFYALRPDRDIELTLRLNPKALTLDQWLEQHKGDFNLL

For this assay, the target named is NMRAL1 (endogenous, HEK-293T cells) (human (endogenous in HEK-293T)) (UniProt Q9HBL8). Briefly: SDS-PAGE and Western blot of the dimer band (CETSA-WB samples); HEK-293T cell lysate with 40 µM NTZ or DMSO, heated over a temperature range, soluble fraction blotted with anti-NMRAL1 antibody. On the technique in general: Immunoblotting shows a protein as a band on a membrane.

These are yes or no findings as the source states them, for the method shown. Some binding calls cover weakened binding; strength is not graded here.

“NMRAL1 (endogenous, HEK-293T cells) (from UniProt Q9HBL8 1-299)”: the binding entry is “binds”.
